Assay results: paper PMC5061711
Results are given in words; binding and its absence hold for the method and conditions named. Binding seen in cells or lysates may run through a third protein. Some binding calls cover weakened binding; strength is not graded here. Tags and fused reporters may be left off the sequences shown.

T1: HycE, [NiFe]-hydrogenase catalytic subunit of formate hydrogenlyase, with internal His-tag (E. coli) (UniProt P16431)
T1 sequence: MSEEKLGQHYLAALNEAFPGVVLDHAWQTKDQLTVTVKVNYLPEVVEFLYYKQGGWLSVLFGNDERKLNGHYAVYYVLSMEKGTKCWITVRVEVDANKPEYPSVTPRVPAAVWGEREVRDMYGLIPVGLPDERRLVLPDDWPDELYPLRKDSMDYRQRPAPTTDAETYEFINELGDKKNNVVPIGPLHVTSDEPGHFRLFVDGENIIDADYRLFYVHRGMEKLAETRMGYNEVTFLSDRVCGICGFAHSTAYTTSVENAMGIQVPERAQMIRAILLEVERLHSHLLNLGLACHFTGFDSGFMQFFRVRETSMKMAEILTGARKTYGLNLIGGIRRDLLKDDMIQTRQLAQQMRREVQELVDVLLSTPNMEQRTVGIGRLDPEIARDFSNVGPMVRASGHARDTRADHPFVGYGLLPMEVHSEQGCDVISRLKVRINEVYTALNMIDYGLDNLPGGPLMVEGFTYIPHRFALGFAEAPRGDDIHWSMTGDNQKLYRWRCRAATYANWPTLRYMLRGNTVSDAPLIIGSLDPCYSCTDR

B1: HycB, [FeS]-cluster protein of formate hydrogenlyase (protein, UniProt P0AAK1 1-203)
chain: MNRFVIADSTLCIGCHTCEAACSETHRQHGLQSMPRLRVMLNEKESAPQLCHHCEDAPCAVVCPVNAITRVDGAVQLNESLCVSCKLCGIACPFGAIEFSGSRPLDIPANANTPKAPPAPPAPARVSTLLDWVPGIRAIAVKCDLCSFDEQGPACVRMCPTKALHLVDNTDIARVSKRKRELTFNTDFGDLTLFQQAQSGEAK
B2: FDH-H, formate dehydrogenase subunit of formate hydrogenlyase (FdhF) (protein, UniProt P07658 1-715)
chain: MKKVVTVCPYCASGCKINLVVDNGKIVRAEAAQGKTNQGTLCLKGYYGWDFINDTQILTPRLKTPMIRRQRGGKLEPVSWDEALNYVAERLSAIKEKYGPDAIQTTGSSRGTGNETNYVMQKFARAVIGTNNVDCCARVUHGPSVAGLHQSVGNGAMSNAINEIDNTDLVFVFGYNPADSHPIVANHVINAKRNGAKIIVCDPRKIETARIADMHIALKNGSNIALLNAMGHVIIEENLYDKAFVASRTEGFEEYRKIVEGYTPESVEDITGVSASEIRQAARMYAQAKSAAILWGMGVTQFYQGVETVRSLTSLAMLTGNLGKPHAGVNPVRGQNNVQGACDMGALPDTYPGYQYVKDPANREKFAKAWGVESLPAHTGYRISELPHRAAHGEVRAAYIMGEDPLQTDAELSAVRKAFEDLELVIVQDIFMTKTASAADVILPSTSWGEHEGVFTAADRGFQRFFKAVEPKWDLKTDWQIISEIATRMGYPMHYNNTQEIWDELRHLCPDFYGATYEKMGELGFIQWPCRDTSDADQGTSYLFKEKFDTPNGLAQFFTCDWVAPIDKLTDEYPMVLSTVREVGHYSCRSMTGNCAALAALADEPGYAQINTEDAKRLGIEDEALVWVHSRKGKIITRAQVSDRPNKGAIYMTYQWWIGACNELVTENLSPITKTPEYKYCAVRVEPIADQRAAEQYVIDEYNKLKTRLREAALA
modifications: selenocysteine at the active site (position not given)
B3: HycF, [FeS]-cluster protein of formate hydrogenlyase (protein, UniProt P16432 1-180)
chain: MFTFIKKVIKTGTATSSYPLEPIAVDKNFRGKPEQNPQQCIGCAACVNACPSNALTVETDLATGELAWEFNLGHCIFCGRCEEVCPTAAIKLSQEYELAVWKKEDFLQQSRFALCNCRVCNRPFAVQKEIDYAIALLKHNGDSRAENHRESFETCPECKRQKCLVPSDRIELTRHMKEAI
B4: HycG, Hyd-3 small subunit of formate hydrogenlyase (protein, UniProt P16433 1-255)
chain: MSNLLGPRDANGIPVPMTVDESIASMKASLLKKIKRSAYVYRVDCGGCNGCEIEIFATLSPLFDAERFGIKVVPSPRHADILLFTGAVTRAMRSPALRAWQSAPDPKICISYGACGNSGGIFHDLYCVWGGTDKIVPVDVYIPGCPPTPAATLYGFAMALGLLEQKIHARGPGELDEQPAEILHGDMVQPLRVKVDREARRLAGYRYGRQIADDYLTQLGQGEEQVARWLEAENDPRLNEIVSHLNHVVEEARIR
B5: HycC, integral membrane subunit of formate hydrogenlyase (protein, UniProt P16429 1-608)
chain: MSAISLINSGVAWFVAAAVLAFLFSFQKALSGWIAGIGGAVGSLYTAAAGFTVLTGAVGVSGALSLVSYDVQISPLNAIWLITLGLCGLFVSLYNIDWHRHAQVKCNGLQINMLMAAAVCAVIASNLGMFVVMAEIMALCAVFLTSNSKEGKLWFALGRLGTLLLAIACWLLWQRYGTLDLRLLDMRMQQLPLGSDIWLLGVIGFGLLAGIIPLHGWVPQAHANASAPAAALFSTVVMKIGLLGILTLSLLGGNAPLWWGIALLVLGMITAFVGGLYALVEHNIQRLLAYHTLENIGIILLGLGAGVTGIALEQPALIALGLVGGLYHLLNHSLFKSVLFLGAGSVWFRTGHRDIEKLGGIGKKMPVISIAMLVGLMAMAALPPLNGFAGEWVIYQSFFKLSNSGAFVARLLGPLLAVGLAITGALAVMCMAKVYGVTFLGAPRTKEAENATCAPLLMSVSVVALAICCVIGGVAAPWLLPMLSAAVPLPLEPANTTVSQPMITLLLIACPLLPFIIMAICKGDRLPSRSRGAAWVCGYDHEKSMVITAHGFAMPVKQAFAPVLKLRKWLNPVSLVPGWQCEGSALLFRRMALVELAVLVVIIVSRGA
B6: HycD, integral membrane subunit of formate hydrogenlyase (protein, UniProt P16430 1-307)
chain: MSVLYPLIQALVLFAVAPLLSGITRVARARLHNRRGPGVLQEYRDIIKLLGRQSVGPDASGWVFRLTPYVMVGVMLTIATALPVVTVGSPLPQLGDLITLLYLFAIARFFFAISGLDTGSPFTAIGASREAMLGVLVEPMLLLGLWVAAQVAGSTNISNITDTVYHWPLSQSIPLVLALCACAFATFIEMGKLPFDLAEAEQELQEGPLSEYSGSGFGVMKWGISLKQLVVLQMFVGVFIPWGQMETFTAGGLLLALVIAIVKLVVGVLVIALFENSMARLRLDITPRITWAGFGFAFLAFVSLLAA

molecular target: T1, HycE, [NiFe]-hydrogenase catalytic subunit of formate hydrogenlyase, with internal His-tag (E. coli); test: pull-down; IMAC purification of the FHL complex by the internal His-tag on HycE from E. coli MG059e1; membranes dispersed in a detergent cocktail, purified in dodecyl maltoside buffer; subunits seen by SDS-PAGE

Binder	binding
B1	binds
B2	binds
B3	binds
B4	binds
B5	binds
B6	binds

molecular target: T1, HycE, [NiFe]-hydrogenase catalytic subunit of formate hydrogenlyase, with internal His-tag (E. coli); test: pull-down; IMAC purification by the internal His-tag on HycE from E. coli EHisdCD (deletion of hycC and hycD), grown fermentatively; subunits seen by SDS-PAGE

Binder	binding
B1	binds
B2	binds
B3	binds
B4	binds

molecular target: T1, HycE, [NiFe]-hydrogenase catalytic subunit of formate hydrogenlyase, with internal His-tag (E. coli); test: pull-down; purification of HycE^His from the MG059e1 derivative carrying the HycD E199/201/203A allele on the chromosome; data not shown

Binder	binding
B1	binds
B2	binds
B3	binds
B4	binds
